This assay addresses purified His-tagged recombinant LGI1 (UniProt Q8K4Y5). Briefly: SPR. Background: In SPR one partner is held on a chip, and binding of the other changes the refractive index at the surface.

These are yes or no findings as the source states them, for the method shown. Where a sequence is shown, tags or fusion partners need not be part of it.

B1: purified His-tagged recombinant LGI1 (protein, UniProt Q8K4Y5 35-557)
chain: KKPAKPKCPAVCTCSKDNALCENARSIPRTVPPDVISLSFVRSGFTEISEGSFLFTPSLQLLLFTSNSFDVISDDAFIGLPHLEYLFIENNNIKSISRHTFRGLKSLIHLSLANNNLQTLPKDIFKGLDSLTNVDLRGNSFNCDCKLKWLVEWLGHTNATVEDIYCEGPPEYKKRKINSLSPKDFDCIITEFAKSQDLPYQSLSIDTFSYLNDEYVVIAQPFTGKCIFLEWDHVEKTFRNYDNITGTSTVVCKPIVIDTQLYVIVAQLFGGSHIYKRDGFANKFIKIQDIEVLKIRKPNDIETFKIEDNWYFVVADSSKAGFTTIYKWNGNGFYSHQSLHAWYRDTDVEYLEIARPPLTLRTPHLILSSSSQRPVIYQWSKATQLFINQTDIPNMEDVYAVKHFSVKGDVYICLTRFIGDSKVMKWGGSSFQDIQRMPSRGSMVFQPLQINNYQYAILGSDYSFTQVYNWDAEKAKFVKFQELNVQAPRSFTHVSINKRNFLFASSFKGNTQIYKHVIVDLSA
With B1, the binding result is recorded as “no binding”.

(Values after article doi:10.1101/2022.03.29.486232.)
